## Assay results

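Malaria parasite (P. falciparum) lines kept in red blood cells; parasite DNA is measured by SYBR Green fluorescence after lysis, 72 h after compound addition.
Each compound was titrated across a series from about 0.000037 to 29 µM.
The number is the fitted AC50, the concentration giving a half-maximal change in signal; a lower value means higher potency, whether the curve shows a decrease or an increase.
Calls follow the curve class and fit quality: every row here is inconclusive, covering signal-raising curves and weak, poorly fitted, partial or highest-dose-only inhibition curves.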

Values are in nM.
Every entry below has the call inconclusive.
Only part of the assay is shown, chiefly results filed as inconclusive.
Potencies fitted to partial, single-point or poorly fitting curves are rough.
Some entries filed as inconclusive have a full curve.
The first word of each remark tells which way the curve ran; it can be opposite to the aim of the assay.

Compound	setting	fitted potency (nM)	curve as filed
NNCCc1ccccc1	CP250	10000	inhibitor, single point
NNCCc1ccccc1	7G8	10000	inhibitor, single point
NNCCc1ccccc1	P94_40	10000	inhibitor, single point
NNCCc1ccccc1	parasite line A	7080	inhibitor, single point
NNCCc1ccccc1	CP262	0.6	activator
Cc1cc(C(C)(C)C)cc(C)c1CC1=NCCN1	DIV17	8087	inhibitor, single point
Cc1cc(C(C)(C)C)cc(C)c1CC1=NCCN1	CP268	8087	inhibitor, partial curve, poor fit
Cc1cc(C(C)(C)C)cc(C)c1CC1=NCCN1	DIV14	8087	inhibitor, single point
Cc1cc(C(C)(C)C)cc(C)c1CC1=NCCN1	P93_24	794.3	inhibitor, full curve
Cc1cc(C(C)(C)C)cc(C)c1CC1=NCCN1	GB4	4548	inhibitor, partial curve
Cc1cc(C(C)(C)C)cc(C)c1CC1=NCCN1	CP192	1614	inhibitor, partial curve, poor fit
NC(N)=NCc1cccc(I)c1	CP297	756.9	inhibitor, partial curve, poor fit
NC(N)=NCc1cccc(I)c1	CP335	19011	inhibitor, partial curve, poor fit
NC(N)=NCc1cccc(I)c1	CP262	21331	inhibitor, single point
NC(N)=NCc1cccc(I)c1	CP260	10000	inhibitor, single point
NC(N)=NCc1cccc(I)c1	ICS	112.2	inhibitor, full curve
CCCOc1ccc2nc(NC(=O)OC)sc2c1	CP335	1901	inhibitor, single point
CCCOc1ccc2nc(NC(=O)OC)sc2c1	P94_40	17782	inhibitor, single point
CCCOc1ccc2nc(NC(=O)OC)sc2c1	CP256	17782	inhibitor, single point
CCCOc1ccc2nc(NC(=O)OC)sc2c1	CP215	19011	inhibitor, single point
CCCOc1ccc2nc(NC(=O)OC)sc2c1	CP237	11220	inhibitor, single point
CCCOc1ccc2nc(NC(=O)OC)sc2c1	ATS95	17782	inhibitor, single point
Cc1cc(O)c2ccccc2c1O	DIV17	15101	inhibitor, partial curve
Cc1cc(O)c2ccccc2c1O	ICS	12589	inhibitor, partial curve
Cc1cc(O)c2ccccc2c1O	PC26	5358	inhibitor, partial curve, poor fit
Cc1cc(O)c2ccccc2c1O	Dd2	17782	inhibitor, single point
Cc1cc(O)c2ccccc2c1O	CP250	17782	inhibitor, single point
Cc1cc(O)c2ccccc2c1O	7G8	10000	inhibitor, single point
Cc1cc(O)c2ccccc2c1O	GB4	13459	inhibitor, partial curve
Cc1cc(O)c2ccccc2c1O	CP335	19011	inhibitor, partial curve, poor fit
Cc1cc(O)c2ccccc2c1O	DIV14	16944	inhibitor, partial curve
OC/C=C/c1ccccc1	parasite line B	17782	inhibitor, single point
OC/C=C/c1ccccc1	W2	849.2	inhibitor, partial curve, poor fit
O=[As]O[As]=O (stereo unspecified)	SC27B	11220	inhibitor, single point
O=[As]O[As]=O (stereo unspecified)	PC15	11220	inhibitor, single point

4 of the entries, repeated:

Compound,setting,fitted potency (nM),curve as filed
Cc1cc(O)c2ccccc2c1O,7G8,10000,"inhibitor, single point"
Cc1cc(C(C)(C)C)cc(C)c1CC1=NCCN1,P93_24,794.3,"inhibitor, full curve"
NNCCc1ccccc1,CP250,10000,"inhibitor, single point"
NNCCc1ccccc1,CP262,0.6,activator

The results are deposited in PubChem (AID504749; NCATS, 2011).